3 molecules from paper doi:10.1101/2021.11.02.466876 can be followed below.

No constants are given. Whether binding was seen depends on the method and setting. Binding can be weak; no strength is given. Sequences can lack the tags named with a protein. For part of these data: In cells and extracts the contact can be indirect.

For test [1], the target named is T1, HopG1 fused to the GAL4 DNA-binding domain (pDEST32::HopG1) (Pseudomonas syringae pv. tomato DC3000) (UniProt Q87W42).
T1 sequence: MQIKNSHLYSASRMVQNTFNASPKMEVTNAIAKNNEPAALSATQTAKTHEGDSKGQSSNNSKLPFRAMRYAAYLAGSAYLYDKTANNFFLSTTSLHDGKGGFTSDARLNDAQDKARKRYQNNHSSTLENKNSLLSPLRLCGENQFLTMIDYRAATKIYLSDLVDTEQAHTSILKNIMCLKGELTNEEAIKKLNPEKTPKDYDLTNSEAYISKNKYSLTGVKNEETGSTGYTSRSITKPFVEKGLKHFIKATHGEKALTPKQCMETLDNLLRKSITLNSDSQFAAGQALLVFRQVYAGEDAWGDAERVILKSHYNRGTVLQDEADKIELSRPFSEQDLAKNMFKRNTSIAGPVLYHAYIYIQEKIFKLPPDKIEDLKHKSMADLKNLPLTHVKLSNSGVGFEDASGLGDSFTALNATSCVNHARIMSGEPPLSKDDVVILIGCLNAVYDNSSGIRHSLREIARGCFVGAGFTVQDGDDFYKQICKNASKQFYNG
As to the kind of experiment: two-hybrid.

The target in test [2] is AtNHR2B tagged with the green fluorescent protein (AtNHR2B-GFP) (Arabidopsis thaliana). As to the kind of experiment: co-IP.
Test [3] has as its target AtNHR2B fused to the N-terminal half of EYFP (nEYFP-AtNHR2B) (Arabidopsis thaliana). Nature of the test: split reporter.

As for “AtNHR2B fused to the GAL4 activation domain (pDEST22::AtNHR2B) (from UniProt Q9SW23)”, the binding result in test [1] was “binds”.

B1: HopG1 fused to the flag epitope (HopG1-FLAG) (protein, UniProt Q87W42 1-493)
chain: MQIKNSHLYSASRMVQNTFNASPKMEVTNAIAKNNEPAALSATQTAKTHEGDSKGQSSNNSKLPFRAMRYAAYLAGSAYLYDKTANNFFLSTTSLHDGKGGFTSDARLNDAQDKARKRYQNNHSSTLENKNSLLSPLRLCGENQFLTMIDYRAATKIYLSDLVDTEQAHTSILKNIMCLKGELTNEEAIKKLNPEKTPKDYDLTNSEAYISKNKYSLTGVKNEETGSTGYTSRSITKPFVEKGLKHFIKATHGEKALTPKQCMETLDNLLRKSITLNSDSQFAAGQALLVFRQVYAGEDAWGDAERVILKSHYNRGTVLQDEADKIELSRPFSEQDLAKNMFKRNTSIAGPVLYHAYIYIQEKIFKLPPDKIEDLKHKSMADLKNLPLTHVKLSNSGVGFEDASGLGDSFTALNATSCVNHARIMSGEPPLSKDDVVILIGCLNAVYDNSSGIRHSLREIARGCFVGAGFTVQDGDDFYKQICKNASKQFYNG
As to B1, the binding entry in test [2] was “binds”.

B2: HopG1 fused to the C-terminal half of EYFP (HopG1-cEYFP) (protein, UniProt Q87W42 1-493)
chain: MQIKNSHLYSASRMVQNTFNASPKMEVTNAIAKNNEPAALSATQTAKTHEGDSKGQSSNNSKLPFRAMRYAAYLAGSAYLYDKTANNFFLSTTSLHDGKGGFTSDARLNDAQDKARKRYQNNHSSTLENKNSLLSPLRLCGENQFLTMIDYRAATKIYLSDLVDTEQAHTSILKNIMCLKGELTNEEAIKKLNPEKTPKDYDLTNSEAYISKNKYSLTGVKNEETGSTGYTSRSITKPFVEKGLKHFIKATHGEKALTPKQCMETLDNLLRKSITLNSDSQFAAGQALLVFRQVYAGEDAWGDAERVILKSHYNRGTVLQDEADKIELSRPFSEQDLAKNMFKRNTSIAGPVLYHAYIYIQEKIFKLPPDKIEDLKHKSMADLKNLPLTHVKLSNSGVGFEDASGLGDSFTALNATSCVNHARIMSGEPPLSKDDVVILIGCLNAVYDNSSGIRHSLREIARGCFVGAGFTVQDGDDFYKQICKNASKQFYNG
On to B2, for which the binding entry in test [3] is “binds”.
